# Reference: US20170114128A1, “USE OF TGF-BETA ANTAGONISTS OF TREAT TYPE-2 DIABETES” (ALBERT EINSTEIN COLLEGE OF MEDICINE, INC., priority 2014, published 2017)
# Test system: normal C57BL/6 mice
# Test: Intra-third ventricle injection of TGF-β1, GTT, ITT, food intake and body weight
# Format: in vivo
# Conditions: 24 hours after injection, same protocol
# Description: Brain TGF-β excess impairs glucose tolerance: To study the metabolic effects of brain TGF-β excess, a pharmacological approach was first used by which TGF-β was delivered into the hypothalamic third ventricle of normal C57BL/6 mice via pre-implanted cannula. To optimize the dosage, different doses of TGF-β1 (0, 0.5, 1.0, and 4.0 ng) were injected, and TGF-β1 concentrations measured in the CSF at various time points post-injection. […] Based on this condition, overnight-fasted mice were given intra-third ventricle injections of TGF-β1 in these doses, one injection at night after food was removed, and the second injection in the following morning at 4 hours prior to glucose tolerance test (GTT). […] In sum, a pharmacological induction of brain TGF-β excess can acutely cause pre-diabetic changes including glucose intolerance and insulin resistance.
# Animals. Tgfb1^lox/lox mice, Tgfbr2^lox/lox mice, Tgfb1^+/− mice, GFAP-Cre mice, and T1r4^−/− mice on C57BL/6 were obtained from Jackson (32,56-59) and continued to be maintained on C57BL/6. CMV-lox-stop-lox-Tgfb1 mice(30) obtained from Jackson were backcrossed into C57BL/6. POMC-Cre mice maintained on C57BL/6 were used in our previous research (20,60). […] Food intake and body weight of mice were measured using a laboratory scale. […] Blood glucose levels during GTT and ITT were measured with LifeScan® blood glucose monitoring system. […]
substance,measurement,value
"TGF-β1: transforming growth factor-β1 (Sigma), cytokine dissolved in artificial cerebrospinal fluid for third-ventricle injection",body weight,did not affect
same,food intake,did not affect
